Measured values taken from PubChem BioAssay AID588499 (NMMLSC, 2011).
Out of some 360,000 compounds screened, about 610 (0.17%) were called active. This list was built around the results that the source calls inconclusive (neither active nor inactive); the mix of calls is not that of the screen. Rule as the data show it: active = inhibition above about 30%; inconclusive = no clear call, values can overlap the other calls; inactive = below that.

tested on: Botulinum neurotoxin type A light chain protease (Clostridium botulinum A str. ATCC 3502); assay: blockers of BoNT/A LC substrate cleavage – biochemical, flow cytometry, MLPCN library, primary screen (AID 588499); conditions: multiplex microsphere protease substrate cleavage, at 10 µM, hits give high values; also: plate controls were buffer without enzyme for full effect and enzyme alone for no effect

Compound | inhibition
O=C(O)C(=O)Nc1nc(-c2ccc3c(c2)OCCO3)cs1 | inconclusive: -3.8%
COc1ccc(NC(=O)c2cc(S(=O)(=O)N3CCCC3)oc2C)cc1 | inconclusive: -36.5%
COc1ccc(CN2C(=O)CSC2c2ccncc2)cc1 (stereo not drawn) | inconclusive: -0.3%
O=C(Cc1cccs1)N1CCN(c2nc(-c3ccc(Cl)cc3)cs2)CC1 | inconclusive: -2%
COc1ccc(N2CCN(CNC(=O)c3ccccc3)CC2)cc1 | inconclusive: 6.9%
CC(=O)Nc1ccc(SC(C)C(=O)NC(N)=O)cc1 (stereo not drawn) | inconclusive: -4.1%
NC(=O)CSc1nnnn1-c1ccc(OC(F)(F)F)cc1 | inconclusive: -2.2%
COc1ccc(C(=O)N=C2SC3CS(=O)(=O)CC3N2c2ccccc2)cc1OC (stereo not drawn) | inactive: 2.4%
O=C1N=C(N2CCOCC2)S/C1=C\c1ccc(-c2ccccc2Cl)o1 | inactive: 2%
C=CCSc1nc(O)c(CC)c(=O)n1C(C)CC (stereo not drawn) | inconclusive: -4.4%
O=C(CCN1CCCCC1)Nn1c(=S)[nH]c2ccccc2c1=O | inconclusive: -1.5%
CN1CCN(c2ccc(S(=O)(=O)N3CCOCC3)cc2NC(=O)CSCc2ccccc2)CC1 | inactive: 0.9%
Cc1cc(C)c(C#N)c(SCC(=O)c2cccs2)n1 | inconclusive: -0.1%
Cc1cc(C(=O)C(C)OC(=O)c2cnccn2)c(C)n1-c1ccccc1 (stereo not drawn) | inactive: 0.1%
Cc1cc(-c2cccs2)c2c(N)c(C(=O)c3ccc4c(c3)OCO4)sc2n1 | active: 55.5%
Cc1ccccc1CSCCNC(=O)Nc1ccccc1 | inactive: 0.6%
O=[N+]([O-])c1ccccc1OCCN1CCCC1 | inconclusive: 3.5%
COC(=O)c1ccc2nc(C)c(C)nc2c1 | inconclusive: -0.4%
O=C(CSc1ccc(Cl)cc1)Nc1ccc(C2SCCS2)cc1 | inconclusive: -46.9%
Cc1ccc(S(=O)(=O)NC(CC(=O)O)c2ccco2)cc1 (stereo not drawn) | inconclusive: -1.1%
COc1ccc(N2CCN(S(C)(=O)=O)CC2)cc1 | inconclusive: -0.7%
C=CCn1c(SCn2nnc3ccccc3c2=O)nnc1-c1ccc(Br)cc1 | inconclusive: -0.3%
CCN(CC)CCNc1nc(-n2nc(C)cc2C)nc2sc3c(c12)CC(C)(C)OC3 | inconclusive: 9.3%
CSc1ccc(CNC(=O)C2(C)CCCN(C(C)=O)C2)cc1 (stereo not drawn) | inactive: -7.3%

Compound | inhibition
OC(COc1ccccc1)CN1CCOCC1 (stereo not drawn) | inconclusive: 0.7%
CC1=C(C(=O)OCc2ccccc2)C(c2ccc([N+](=O)[O-])cc2)NC(=O)N1C (stereo not drawn) | inconclusive: 6.6%
CCN1CNC(=S)N(c2cccc(C)c2C)C1 | inconclusive: 1.4%
Cc1cc2oc(C(=O)N(Cc3ccc(N(C)C)cc3)CC3CCCO3)c(C)c2cc1C (stereo not drawn) | inactive: 1.3%
CCCCCCCCCCCCS[C@H]1CS(=O)(=O)C[C@@H]1O | inconclusive: 0%
O=C(NCCCN1CCCC1=O)c1ccc2c(c1)OCO2 | inconclusive: -1.2%
O=C(COc1ccccc1)NCC(c1ccco1)N1CCN(c2ccccc2)CC1 (stereo not drawn) | inconclusive: 0.3%
C=CCNC(=O)c1ccc(CN2CCC(Cc3ccccc3)CC2)cc1 | inconclusive: -0.8%
Cc1ccc2c(c1)sc1nc(=O)n(-c3cccc(Cl)c3)c(=O)n12 | inactive: 0.8%
COc1ccc(C(=O)N2CCC(C(=O)Nc3ccccc3OC)CC2)cc1 | inconclusive: -0.3%
CC(C)(C)c1ccc(S(=O)(=O)NCc2ccc(C(=O)N3CCCC3)cc2)cc1 | inconclusive: 3.2%
Cc1cc(C)c2nc(Cl)c(Cl)nc2c1 | inconclusive: 22.3%
CCOC(=O)c1nc(C)nc(Sc2n[nH]c(-c3cc(C(F)(F)F)cc(C(F)(F)F)c3)n2)c1C | inconclusive: -8.1%
CC(=O)Nc1ccc(C=C(C(C)=O)C(C)=O)cc1 | inconclusive: -2.6%
CN1CCN(/N=C/c2ccc(OCc3ccccc3)cc2)CC1 | inconclusive: 9.1%
CC(C)(C)Nc1nc(SCc2ccccc2)nc(N2CCOCC2)n1 | inconclusive: -2.8%
Cc1nn(-c2cc(N3CCCCCC3)ccc2[N+](=O)[O-])c(=O)c2ccccc12 | inconclusive: -0.8%
COc1ccc(CN(CCCN2CCOCC2)C(=O)Nc2ccccc2)cc1OC | inconclusive: 1%
COc1cc(/C=N/N2CCN(c3ccccc3OC)CC2)ccc1O | inconclusive: 0.6%
COC(=O)c1nnn(-c2cc(Cl)cc(Cl)c2)c1C(=O)OC | inactive: 3.4%
Cc1coc2c1c(C)cc1oc(=O)c(CC(=O)N[C@H](C(=O)O)C(C)C)c(C)c12 | inactive: -1.8%
CC(C)OCCCn1c(=N)c(C(N)=S)cc2c(=O)n3ccccc3nc21 | active: 34.8%
CC(=O)Nc1ccc(NC(=O)C(F)(F)F)cc1 | inconclusive: -1.5%
COc1cccc(-n2nnnc2SCC(=O)NCc2ccc3c(c2)OCO3)c1 | inconclusive: -0.1%

Compound | inhibition
CCNc1nc(N2CCCCC2)nc(-n2nnc(C(=O)OCC)c2C)n1 | inconclusive: -1.9%
Cn1c(SCc2ccccc2)nnc1-c1ccc2nonc2c1 | inconclusive: 20.2%
CCn1c(=O)n(CC)c2cc(S(=O)(=O)Nc3ccccc3C)c(C)cc21 | inconclusive: -0.3%
O=C1CCS/C(=N\N=C\c2ccc(Cl)cc2Cl)N1 | inconclusive: 15.5%
COc1ccc(C2C3=C(CC(C)(C)CC3=O)Oc3ncn(Cc4ccccc4)c(=N)c32)cc1 (stereo not drawn) | inconclusive: 20.1%
Cc1ccc(S(=O)(=O)c2c(C)cc(C)nc2Cl)c(C)c1 | inconclusive: -1.1%
O=S(=O)(NCc1nnc2ccccn12)c1ccc(Cl)cc1 | inconclusive: -5.9%
CCCCn1c(N)c(N(CC(C)C)C(=O)CSCC(=O)Nc2ccc(C)cc2)c(=O)[nH]c1=O | inactive: -0.8%
O=C(O)/C(=N/NC(=O)c1ccc(Cl)cc1)c1ccccc1 | inconclusive: 25.1%
Cc1nccc(-c2sc(-c3cccs3)nc2C)n1 | inconclusive: -8.6%
O=C(CCN1C(=O)/C(=C/C=C/c2ccccc2)SC1=S)Nc1nc2ccccc2s1 | active: 56.5%
COc1ccc(C2C(C#N)=C(N)Oc3cc(O)ccc32)cc1C (stereo not drawn) | inconclusive: -0.1%
CCOc1ccc(S(=O)(=O)NC(Cc2cnc[nH]2)C(=O)O)cc1 (stereo not drawn) | inactive: 0.4%
CSc1nnc([C@@H](N)Cc2c[nH]c3ccccc23)o1 | inactive: 0.8%
CC1(C)CC(=O)C(CC2CCCCC2=O)C(=O)C1 (stereo not drawn) | inconclusive: 3.7%
O=C(O)c1cccc(N2C(=O)c3cccnc3C2=O)c1 | inconclusive: -3.1%
CCOC(=O)c1cc(-c2csc(COc3ccc(Cl)cc3)n2)on1 | inconclusive: -9.6%
COc1cc(N(C)C)c([N+](=O)[O-])cc1C(=O)N1CCOCC1 | inactive: -0.1%
COc1ccc(-n2c(O)c(/C(C)=N/Nc3ccccc3)c(=O)[nH]c2=O)cc1 | inconclusive: 22.1%
CS(=O)(=O)N(Cc1ccco1)Cc1ccccc1Cl | inconclusive: -0.1%
C[C@@H]1CN([C@H](C)CO)C(=O)CCCn2nncc2CO[C@H]1CN(C)S(=O)(=O)c1ccccc1 | inactive: 0.2%
CS(=O)(=O)N(CC(=O)N1CCCCCC1)Cc1ccc(Cl)cc1 | inconclusive: 1.4%
Cc1nc(Nc2ccc3c(c2)OCO3)c2oc3ccccc3c2n1 | inconclusive: -3.4%
Cc1nn(C)c(=O)n1-c1ccccc1 | inactive: -0.7%

Compound | inhibition
CC1CC(C)CN(S(=O)(=O)c2ccc(C(=O)NCCCn3ccnc3)cc2)C1 (stereo not drawn) | inconclusive: 6.9%
CC(C)[C@H](NC(=O)N1CC(=O)Nc2ccccc21)C(=O)N1CCC[C@H]1C(=O)O | inactive: -1.5%
Cc1ccc(-c2nc3cc(Br)cnc3nc2-c2ccc(C)cc2)cc1 | active: 45.7%
COc1ccc(NC(=O)CN(C)C(=O)c2ccc(N3CCCCCC3)c([N+](=O)[O-])c2)cc1 | inconclusive: 10.2%
CCOC(=O)NC(CC(=O)O)c1ccc(OCC)cc1 (stereo not drawn) | inconclusive: 1.9%
CCN1CCN(c2nc3ccccc3s2)CC1 | inconclusive: 0.7%
CN(C)c1ccc([C@@H]2[C@@H]([N+](=O)[O-])[C@H]3C=Cc4ccccc4N3[C@H]2C(=O)c2ccc(Cl)cc2)cc1 | inconclusive: 2.1%
CC(C)(C)C(=O)Nc1ccc(-c2cnco2)cc1 | inconclusive: -70.7%
O=C(Nc1nc(-c2ccccn2)cs1)c1cc(S(=O)(=O)N2CCOCC2)ccc1F | inactive: 3.1%
CCOc1ccc2nc(SCC(=O)N3CCCc4ccccc43)sc2c1 | inconclusive: 2.2%
O=C(NCc1ccccc1CN1CCCC1)c1cc2cc(Cl)ccc2o1 | inactive: -0.3%
NC(N)=Nc1ccc(C=C2C=Cc3ccccc32)cc1 | inactive: -0.2%
COc1ccc(CCNC(=O)c2ccc([N+](=O)[O-])cc2Cl)cc1OC | inconclusive: 3.5%
Cc1ccc(F)cc1NC(=O)N1CCN(C2c3ccccc3-c3ccccc32)CC1 | inconclusive: -28.7%
CCN1/C(=C\c2ccc3cc(C)ccc3[n+]2CC)Sc2cc(C)c(C)cc21 | active: 42%
COc1cccc(C(=O)N2CCCc3ccccc32)c1 | inactive: -3.3%
Cc1cc2cc(CNC(=O)c3ccc(S(=O)(=O)N(C)C)cc3)ccc2n1C | active: 81.6%
COC(=O)/C(=C1/Oc2cc(C)oc(=O)c2S1)C(F)(F)F | inconclusive: 4.4%
COc1ccc2nc(C(C)O)[nH]c2c1 (stereo not drawn) | inconclusive: -2.9%
O=C(CN1CCOCC1)Nc1cc(C(F)(F)F)ccc1Cl | inactive: 0.5%
Cc1nc(-c2cccc(NS(=O)(=O)c3ccc4ccccc4c3)c2)cs1 | inconclusive: -47.8%
